These results are taken from PubChem BioAssay.

Where “and” joins values, the source holds several entries; their conditions need not be identical. Equal entries are not always repeated. The list shows a part of the results. Results with a measured potency or affinity are listed apart. Entries without a call are filed as inconclusive in the source.

The nature of assay [1]: Drosophila SCA1 whole organism dose response for polyglutamine toxicity reduction (AID 1595). To be noted: Drosophila SCA1 polyglutamine model, at 1 µM, stronger effect = higher value.
Assay [2] in a line: PubChem AID 1597. To be noted: Drosophila SCA1 polyglutamine model, at 1 µM, stronger effect = higher value.

For `NC1(C(=O)O)CCCC1`, the suppression of toxicity in assay [1] was found to be 1.43; in assay [2], 31.4.

With `O=C(O)CCCCCCCC(=O)O`, the results for the suppression of toxicity in assay [1] and in assay [2] were 0 and 10.7, respectively.

As to `CC(C)(Oc1ccc(Cl)cc1)C(=O)O`, the suppression of toxicity in assay [1] was 2.85; in assay [2], 5.

Consider `C[C@]12CCC3c4ccc(O)cc4CCC3C1CC[C@@H]2O` (some centres undefined), for which the suppression of toxicity in assay [1] came out at 4.29; in assay [2], 6.43.

Turning to `C[C@H]1c2cccc(O)c2C(O)=C2C(=O)[C@]3(O)C(O)=C(C(N)=O)C(=O)[C@@H](N(C)C)[C@@H]3[C@@H](O)[C@@H]21`, the suppression of toxicity was 1.43 in assay [1] and 12.1 in assay [2].

On to `CN(C(=O)CN(CCO)CC(=O)N(C)C(C)(C)Cc1ccccc1)C(C)(C)Cc1ccccc1`, for which the suppression of toxicity is 2.86 in assay [1] and 2.15 in assay [2].

As to `CCCCOc1ccc(CC(=O)NO)cc1`, the suppression of toxicity in assay [1] came out at 4.29; in assay [2] it was 16.4.

Take `CN=C(N)NCCCC(N)C(=O)O` (centres undefined): the values for the suppression of toxicity in assay [1] and in assay [2] were 0 and 0.715, respectively.

Take `C=C1c2c(Cl)ccc(O)c2C(O)=C2C(=O)[C@]3(O)C(O)=C(C(N)=O)C(=O)[C@@H](N(C)C)[C@@H]3[C@@H](O)[C@H]12`: the suppression of toxicity in assay [1] worked out at 0; in assay [2], 0.715.

Turning to `O=C1c2cccc(O)c2C(=O)c2c(O)cccc21`, the suppression of toxicity in assay [1] and in assay [2] was 2.85 throughout.

In the case of `Nc1ccc(N=Nc2ccccc2)c(N)n1`, the suppression of toxicity was 1.43 in assay [1] and 10.7 in assay [2].

For `CC(=O)NCCCCCC(=O)O`, the results for the suppression of toxicity in assay [1] and in assay [2] were 0 and 6.43, respectively.

As to `O=C(OCc1ccccc1)c1ccccc1`, the results for the suppression of toxicity in assay [1] and in assay [2] were 1.43 and 2.86, respectively.

Take `S=c1nc[nH]c2nc[nH]c12`: the suppression of toxicity was 7.14 in assay [1] and 2.86 in assay [2].

For the compound `CC12CCC3C(=CCc4cc(O)ccc43)C1CCC2=O` (centres undefined), the suppression of toxicity in assay [1] came out at 7.14; in assay [2], 10.

Take `CC(=O)[C@@]1(O)CCC2C3C[C@H](C)C4=CC(=O)C=CC4(C)[C@@]3(F)[C@@H](O)C[C@@]21C` (some centres undefined): the suppression of toxicity in assay [1] and in assay [2] was 4.29 throughout.

`C#C[C@]1(O)CCC2C3CCc4cc(O)ccc4C3CC[C@@]21C` (some centres undefined): the suppression of toxicity in assay [1] amounted to 0; in assay [2], 1.43.

Take `NCCCCCCNS(=O)(=O)c1cccc2c(Cl)cccc12`: the suppression of toxicity in assay [1] is 0 and 8.57 and 7.14; in assay [2] it was 0.715 and 10.7.

Take `CCCCCCOc1ccccc1C(N)=O`: the suppression of toxicity was 10 in assay [1] and 9.29 in assay [2].

`CSc1ccc2c(c1)N(CCC1CCCCN1C)c1ccccc1S2` (centres undefined): the suppression of toxicity stood at 7.14 in assay [1] and 13.6 in assay [2].

As for `Cn1c(=O)c2c(ncn2CC(O)CO)n(C)c1=O` (centres undefined), the suppression of toxicity in assay [1] and in assay [2] was 8.57 each time.

Turning to `NC[C@@H]1O[C@H](O[C@@H]2[C@@H](CO)OC(O[C@@H]3[C@@H](O)[C@H](N)C[C@H](N)[C@H]3OC3O[C@H](CO)[C@@H](O)[C@H](O)[C@H]3N)[C@@H]2O)[C@H](N)[C@@H](O)[C@@H]1O` (some centres undefined), the suppression of toxicity came to 0 in assay [1] and 3.58 in assay [2].

For the compound `O=C1CN(/N=C/c2ccc([N+](=O)[O-])o2)C(=O)N1`, the suppression of toxicity in assay [1] and in assay [2] was 4.29 in each case.

Turning to `CCC1(c2ccccc2)NC(=O)N(C)C1=O` (centres undefined), the values for the suppression of toxicity in assay [1] and in assay [2] were 2.85 and 0.715, respectively.

With `COc1cc(NS(=O)(=O)c2ccc(N)cc2)nc(OC)n1`, the suppression of toxicity in assay [1] amounted to 0; in assay [2] it was 0.715.

Turning to `NC(=O)N1c2ccccc2C=Cc2ccccc21`, the suppression of toxicity is 4.29 in assay [1] and 9.29 in assay [2].

For `CCN(CC)C(=O)c1cccc(C)c1`, the suppression of toxicity in assay [1] turned out to be 4.29; in assay [2] it was 5.71.
